# Assay results reported in US20120322691.
# Protein sequences, listed by entry. Tags and fused reporters are not part of them. Lines headed by an entry give the natural chain unless they say otherwise; changes in a name come on top.
# UniProt P00971: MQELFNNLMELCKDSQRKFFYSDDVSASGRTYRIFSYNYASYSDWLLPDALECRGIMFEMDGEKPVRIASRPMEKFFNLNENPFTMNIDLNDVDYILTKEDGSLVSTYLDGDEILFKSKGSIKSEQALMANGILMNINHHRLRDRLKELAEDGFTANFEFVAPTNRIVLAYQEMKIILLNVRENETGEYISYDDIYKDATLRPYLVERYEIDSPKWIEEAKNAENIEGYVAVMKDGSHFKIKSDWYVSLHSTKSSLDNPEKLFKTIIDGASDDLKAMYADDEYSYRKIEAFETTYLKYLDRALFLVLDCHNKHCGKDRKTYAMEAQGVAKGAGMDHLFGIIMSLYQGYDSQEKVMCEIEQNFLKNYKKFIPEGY
# For part of these data: Weaker means in comparison with the reference protein, sequence or condition of that experiment. For part of these data: For at least one entry, the source does not settle the construct or the ends of the probe.
# Experiments:
# [1] = target: T4 RNA ligase 1 (Rnl1) (Enterobacteria phage T4) (UniProt P00971); experiment: activity assay; details: ligation to miR-106b from 293T small RNA; only adapter of 12 capturing it well; deep sequencing readout; ATP buffer; purified recombinant protein
# [2] = target: T4 RNA ligase 2, truncated (Rnl2) (Enterobacteria phage T4) (UniProt P32277); experiment: activity assay; details: 3' adapter DNA with 5' rAPP and 3' ddC, gel-shift ligation assay, ATP-free buffer, purified recombinant protein, label: 5' 32P on RNA
sequence,measurement,setting,value
ACACUCUUUCCCUACACGACGCUCUUCCGAUCAGCA [5' adapter ending AGCA],activity on this sequence,[1],active
CGUACGGUUUAAACUUCGA / CTGTAGGCACCATCAAT [19-mer RNA marker + standard 3' adapter],activity on this sequence,[2]; efficient ligation,active
CGUACGGUUUAAACUUCGAAAUGU / CTGTAGGCACCATCAAT [24-mer RNA marker + standard 3' adapter],activity on this sequence,"[2]; ligated product low in abundance, variant of 19-mer RNA marker + standard 3' adapter",less active
